Test [1] addresses biotinylated recombinant full-length HSF2 (UniProt Q03933). Put plainly: BLI. For orientation: In BLI a coated tip is dipped into the sample, and binding shifts an interference pattern.
Test [2] addresses human HSF2-YFP (human) (UniProt Q03933). As to the kind of experiment: co-IP.
Test [3] deals with KIX-GST, wild type (KIX domain of CBP) (UniProt Q92793). Put plainly: co-IP.
For test [4], the target named is HDAC1-GFP (UniProt Q13547). As to the kind of experiment: co-IP.

Chains of the proteins cited; added tags and fusions are not shown. Lines headed by an entry give the natural chain unless they say otherwise; changes in a name come on top. A line that says so, or that is headed by a name, gives the form on record, which may keep a tag or linker. Residues count along the entry.
UniProt Q03933: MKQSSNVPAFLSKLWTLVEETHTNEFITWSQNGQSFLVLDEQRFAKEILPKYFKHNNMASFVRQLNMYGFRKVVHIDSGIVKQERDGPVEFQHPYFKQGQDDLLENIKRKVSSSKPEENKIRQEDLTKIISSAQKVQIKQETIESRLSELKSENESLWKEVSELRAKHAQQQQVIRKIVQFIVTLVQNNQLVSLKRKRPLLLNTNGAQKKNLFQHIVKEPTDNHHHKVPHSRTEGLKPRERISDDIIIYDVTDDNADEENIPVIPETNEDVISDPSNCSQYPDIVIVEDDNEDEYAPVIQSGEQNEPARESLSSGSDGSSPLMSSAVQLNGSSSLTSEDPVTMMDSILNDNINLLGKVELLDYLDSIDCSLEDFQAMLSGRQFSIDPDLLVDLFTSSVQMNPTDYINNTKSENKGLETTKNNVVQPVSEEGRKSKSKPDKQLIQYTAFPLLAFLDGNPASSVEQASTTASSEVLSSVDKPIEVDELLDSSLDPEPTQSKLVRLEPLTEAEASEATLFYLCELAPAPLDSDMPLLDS
UniProt Q92793: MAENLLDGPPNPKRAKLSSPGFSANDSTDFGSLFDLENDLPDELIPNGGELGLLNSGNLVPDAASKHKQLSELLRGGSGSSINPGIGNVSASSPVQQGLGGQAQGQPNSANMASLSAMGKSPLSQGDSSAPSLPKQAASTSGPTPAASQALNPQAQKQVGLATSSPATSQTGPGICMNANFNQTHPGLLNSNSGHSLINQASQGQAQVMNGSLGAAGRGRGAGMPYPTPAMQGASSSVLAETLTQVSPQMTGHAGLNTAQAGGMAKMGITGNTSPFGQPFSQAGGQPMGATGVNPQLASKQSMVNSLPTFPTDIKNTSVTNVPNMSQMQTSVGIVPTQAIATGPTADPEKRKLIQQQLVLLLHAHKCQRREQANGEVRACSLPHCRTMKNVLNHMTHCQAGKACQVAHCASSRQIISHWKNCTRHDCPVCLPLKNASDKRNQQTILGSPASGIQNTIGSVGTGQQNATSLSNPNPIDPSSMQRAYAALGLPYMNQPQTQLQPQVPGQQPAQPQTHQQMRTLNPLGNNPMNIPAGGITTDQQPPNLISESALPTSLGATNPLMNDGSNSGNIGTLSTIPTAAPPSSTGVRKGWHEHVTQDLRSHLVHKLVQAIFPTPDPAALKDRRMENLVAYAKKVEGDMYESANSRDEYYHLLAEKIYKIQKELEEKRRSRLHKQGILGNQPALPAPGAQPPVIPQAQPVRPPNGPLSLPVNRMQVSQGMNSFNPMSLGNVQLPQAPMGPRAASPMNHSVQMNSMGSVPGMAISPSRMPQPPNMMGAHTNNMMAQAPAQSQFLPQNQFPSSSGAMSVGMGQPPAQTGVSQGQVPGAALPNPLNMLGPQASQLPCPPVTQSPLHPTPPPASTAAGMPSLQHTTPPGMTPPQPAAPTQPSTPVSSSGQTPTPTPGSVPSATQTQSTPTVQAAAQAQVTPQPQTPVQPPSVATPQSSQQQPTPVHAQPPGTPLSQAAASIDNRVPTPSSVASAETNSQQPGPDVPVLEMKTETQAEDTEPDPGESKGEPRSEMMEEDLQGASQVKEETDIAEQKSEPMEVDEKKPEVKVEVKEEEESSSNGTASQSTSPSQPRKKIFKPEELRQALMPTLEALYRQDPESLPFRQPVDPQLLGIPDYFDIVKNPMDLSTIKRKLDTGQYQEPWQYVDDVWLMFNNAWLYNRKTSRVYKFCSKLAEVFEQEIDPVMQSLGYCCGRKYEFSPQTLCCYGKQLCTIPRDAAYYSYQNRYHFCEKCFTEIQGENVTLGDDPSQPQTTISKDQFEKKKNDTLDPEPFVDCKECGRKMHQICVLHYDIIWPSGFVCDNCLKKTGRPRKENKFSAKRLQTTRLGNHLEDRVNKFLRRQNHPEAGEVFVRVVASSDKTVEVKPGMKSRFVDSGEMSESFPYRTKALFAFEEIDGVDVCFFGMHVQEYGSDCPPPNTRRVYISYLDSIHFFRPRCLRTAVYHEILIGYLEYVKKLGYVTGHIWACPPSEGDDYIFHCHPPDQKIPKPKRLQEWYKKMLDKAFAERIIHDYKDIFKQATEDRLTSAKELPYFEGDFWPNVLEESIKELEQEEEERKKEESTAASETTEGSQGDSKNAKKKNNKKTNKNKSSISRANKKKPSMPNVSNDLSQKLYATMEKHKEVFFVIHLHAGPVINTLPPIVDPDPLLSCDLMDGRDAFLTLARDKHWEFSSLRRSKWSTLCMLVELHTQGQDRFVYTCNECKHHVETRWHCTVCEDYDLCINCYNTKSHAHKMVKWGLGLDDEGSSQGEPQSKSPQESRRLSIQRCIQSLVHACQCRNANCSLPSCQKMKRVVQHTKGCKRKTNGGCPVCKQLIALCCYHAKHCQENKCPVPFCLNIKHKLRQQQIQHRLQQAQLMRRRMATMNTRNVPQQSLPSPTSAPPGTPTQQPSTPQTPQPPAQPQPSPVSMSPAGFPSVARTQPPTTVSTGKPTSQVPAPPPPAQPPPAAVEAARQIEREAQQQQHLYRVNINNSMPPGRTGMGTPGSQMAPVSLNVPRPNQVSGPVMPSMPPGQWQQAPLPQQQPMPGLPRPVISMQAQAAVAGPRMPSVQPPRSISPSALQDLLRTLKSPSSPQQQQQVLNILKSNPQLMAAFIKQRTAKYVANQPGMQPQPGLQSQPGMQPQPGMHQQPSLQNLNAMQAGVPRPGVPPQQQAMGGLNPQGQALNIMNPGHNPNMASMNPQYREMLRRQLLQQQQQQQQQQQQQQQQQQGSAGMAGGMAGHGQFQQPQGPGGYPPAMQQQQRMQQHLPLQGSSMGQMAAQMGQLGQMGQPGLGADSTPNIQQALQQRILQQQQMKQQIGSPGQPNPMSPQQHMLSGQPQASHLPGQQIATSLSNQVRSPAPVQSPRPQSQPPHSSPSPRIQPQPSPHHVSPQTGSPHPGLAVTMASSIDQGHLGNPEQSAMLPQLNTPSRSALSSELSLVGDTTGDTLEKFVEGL
KIX-GST, wild type (KIX domain of CBP): residues 587-666 of Q92793
UniProt Q13547: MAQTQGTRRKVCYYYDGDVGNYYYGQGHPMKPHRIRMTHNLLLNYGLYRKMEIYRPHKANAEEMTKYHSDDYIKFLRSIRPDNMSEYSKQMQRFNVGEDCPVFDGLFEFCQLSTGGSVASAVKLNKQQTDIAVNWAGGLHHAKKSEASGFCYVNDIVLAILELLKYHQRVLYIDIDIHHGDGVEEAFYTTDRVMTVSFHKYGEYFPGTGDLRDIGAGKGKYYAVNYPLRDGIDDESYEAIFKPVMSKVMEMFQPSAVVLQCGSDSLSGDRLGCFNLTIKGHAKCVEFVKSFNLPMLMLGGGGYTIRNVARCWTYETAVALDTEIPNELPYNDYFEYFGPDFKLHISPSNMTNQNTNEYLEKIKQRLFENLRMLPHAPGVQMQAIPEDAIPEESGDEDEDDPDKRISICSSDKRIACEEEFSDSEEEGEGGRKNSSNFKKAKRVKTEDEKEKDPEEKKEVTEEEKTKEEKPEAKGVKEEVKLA
CBP Bromodomain, 6His-tagged (P45481, residues 1096-1205): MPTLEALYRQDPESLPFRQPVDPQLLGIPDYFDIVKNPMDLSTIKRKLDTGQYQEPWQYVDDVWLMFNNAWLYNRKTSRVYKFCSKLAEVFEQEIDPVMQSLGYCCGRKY
CBP RING domain, 6His-tagged (P45481, residues 1205-1279): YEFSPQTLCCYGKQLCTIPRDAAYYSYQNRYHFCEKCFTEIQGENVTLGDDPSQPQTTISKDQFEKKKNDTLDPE
CBP PHD domain, 6His-tagged (P45481, residues 1280-1321): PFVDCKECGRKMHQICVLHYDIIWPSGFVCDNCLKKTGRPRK
CBP HAT domain, 6His-tagged (P45481, residues 1322-1700): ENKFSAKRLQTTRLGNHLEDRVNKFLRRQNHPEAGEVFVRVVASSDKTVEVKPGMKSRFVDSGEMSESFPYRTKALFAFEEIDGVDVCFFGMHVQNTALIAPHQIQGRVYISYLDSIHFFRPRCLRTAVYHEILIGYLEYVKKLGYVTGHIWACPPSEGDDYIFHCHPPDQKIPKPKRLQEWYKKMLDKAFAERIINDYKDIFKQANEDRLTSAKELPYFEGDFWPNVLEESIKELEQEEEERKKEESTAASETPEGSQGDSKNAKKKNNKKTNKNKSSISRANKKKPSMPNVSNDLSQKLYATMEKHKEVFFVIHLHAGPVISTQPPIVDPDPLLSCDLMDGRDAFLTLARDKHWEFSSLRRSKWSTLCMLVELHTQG
UniProt Q09472: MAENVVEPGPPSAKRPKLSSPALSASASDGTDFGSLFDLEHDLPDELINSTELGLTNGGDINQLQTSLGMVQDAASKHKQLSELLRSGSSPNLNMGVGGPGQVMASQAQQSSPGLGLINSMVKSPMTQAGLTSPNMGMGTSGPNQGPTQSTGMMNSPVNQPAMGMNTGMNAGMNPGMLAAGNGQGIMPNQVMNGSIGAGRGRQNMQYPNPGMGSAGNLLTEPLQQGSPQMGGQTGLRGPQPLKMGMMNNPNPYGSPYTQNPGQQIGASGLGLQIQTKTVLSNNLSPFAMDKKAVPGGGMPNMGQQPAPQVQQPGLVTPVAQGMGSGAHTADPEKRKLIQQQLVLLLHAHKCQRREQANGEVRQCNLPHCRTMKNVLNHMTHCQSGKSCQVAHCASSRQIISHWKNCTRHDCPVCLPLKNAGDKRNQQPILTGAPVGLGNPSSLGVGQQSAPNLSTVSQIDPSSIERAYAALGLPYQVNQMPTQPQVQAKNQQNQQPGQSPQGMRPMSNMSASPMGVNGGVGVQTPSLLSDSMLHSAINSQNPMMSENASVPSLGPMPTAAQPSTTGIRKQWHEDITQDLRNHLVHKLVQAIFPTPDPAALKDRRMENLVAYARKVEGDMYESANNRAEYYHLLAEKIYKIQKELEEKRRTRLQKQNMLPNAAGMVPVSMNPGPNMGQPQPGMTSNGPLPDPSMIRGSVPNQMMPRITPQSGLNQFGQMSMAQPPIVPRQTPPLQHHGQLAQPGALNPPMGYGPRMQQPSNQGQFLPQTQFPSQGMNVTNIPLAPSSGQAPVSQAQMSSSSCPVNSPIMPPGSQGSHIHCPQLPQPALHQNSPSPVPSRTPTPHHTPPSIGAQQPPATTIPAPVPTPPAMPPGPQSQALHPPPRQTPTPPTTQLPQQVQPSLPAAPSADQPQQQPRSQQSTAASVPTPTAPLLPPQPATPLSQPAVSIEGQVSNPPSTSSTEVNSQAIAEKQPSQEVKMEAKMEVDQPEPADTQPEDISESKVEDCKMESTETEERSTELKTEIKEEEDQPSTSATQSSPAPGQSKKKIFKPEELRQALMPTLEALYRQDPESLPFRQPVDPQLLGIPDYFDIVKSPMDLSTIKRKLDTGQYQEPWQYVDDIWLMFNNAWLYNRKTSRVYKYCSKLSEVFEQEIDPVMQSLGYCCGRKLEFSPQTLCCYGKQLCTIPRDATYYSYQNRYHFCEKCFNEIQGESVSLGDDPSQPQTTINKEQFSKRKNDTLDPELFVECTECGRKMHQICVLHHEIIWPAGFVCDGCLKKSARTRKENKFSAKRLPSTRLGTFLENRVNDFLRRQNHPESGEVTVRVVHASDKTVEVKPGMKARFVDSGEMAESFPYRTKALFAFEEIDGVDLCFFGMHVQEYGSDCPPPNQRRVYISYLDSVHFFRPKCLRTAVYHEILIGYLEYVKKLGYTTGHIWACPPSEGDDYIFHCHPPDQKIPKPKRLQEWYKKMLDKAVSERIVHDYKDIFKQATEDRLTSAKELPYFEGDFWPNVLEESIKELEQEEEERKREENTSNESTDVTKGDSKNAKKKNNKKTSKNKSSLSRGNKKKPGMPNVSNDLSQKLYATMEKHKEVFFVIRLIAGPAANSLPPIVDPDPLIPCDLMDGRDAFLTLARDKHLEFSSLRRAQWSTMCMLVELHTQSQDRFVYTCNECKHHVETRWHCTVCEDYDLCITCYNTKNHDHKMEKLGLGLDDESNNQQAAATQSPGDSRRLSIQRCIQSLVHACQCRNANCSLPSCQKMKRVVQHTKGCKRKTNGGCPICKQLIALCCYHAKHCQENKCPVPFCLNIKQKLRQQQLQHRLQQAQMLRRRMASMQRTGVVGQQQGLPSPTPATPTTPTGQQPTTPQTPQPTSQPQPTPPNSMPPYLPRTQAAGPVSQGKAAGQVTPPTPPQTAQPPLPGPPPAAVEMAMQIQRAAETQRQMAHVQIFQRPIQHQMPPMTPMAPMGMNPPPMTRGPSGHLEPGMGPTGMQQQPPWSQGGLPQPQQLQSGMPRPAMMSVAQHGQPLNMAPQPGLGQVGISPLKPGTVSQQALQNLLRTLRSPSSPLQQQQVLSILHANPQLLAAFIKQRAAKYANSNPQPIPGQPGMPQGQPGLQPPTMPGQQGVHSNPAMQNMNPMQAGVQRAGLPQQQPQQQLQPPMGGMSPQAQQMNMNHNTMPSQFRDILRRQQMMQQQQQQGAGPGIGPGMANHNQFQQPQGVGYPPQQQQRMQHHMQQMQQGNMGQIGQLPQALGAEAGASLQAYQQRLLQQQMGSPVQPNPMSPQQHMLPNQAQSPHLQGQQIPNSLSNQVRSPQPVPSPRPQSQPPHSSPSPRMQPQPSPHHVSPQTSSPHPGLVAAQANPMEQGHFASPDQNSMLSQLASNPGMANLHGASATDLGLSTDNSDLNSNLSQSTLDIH

These are yes or no findings as the source states them, for the method shown. For part of these data: In cells and extracts the contact can be indirect. Some binding calls cover weakened binding; strength is not graded here.

As to “CBP Bromodomain, 6His-tagged (from UniProt P45481 1096-1205) (domain or fragment)”, the binding result in test [1] is “no binding (tested: 100 nM)”.

For the substance “CBP HAT domain, 6His-tagged (from UniProt P45481 1322-1700) (domain or fragment)”, in test [1], the binding entry is “no binding (tested: 100 nM)”.

As to “CBP PHD domain, 6His-tagged (from UniProt P45481 1280-1321) (domain or fragment)”, in test [1], the binding result is given as “binds”.

Turning to “CBP RING domain, 6His-tagged (from UniProt P45481 1205-1279) (domain or fragment)”, in test [1], the binding result is recorded as “no binding (tested: 100 nM)”.

CBP-HA (from UniProt Q92793 1-2442): the binding result in test [2] is “binds”.

As for EP300-HA (from UniProt Q09472 1-2414), in test [2], the binding result is on record as “binds”.

For HSP70 (from UniProt P0DMV8 1-641), the binding result in test [1] is given as “binds”.

On to “SNAP-HSF2 (human HSF2-Snap, wild type) (from UniProt Q03933 1-536)”, for which the binding result in test [3] is “binds”.

In the case of “human HSF2-Myc (from UniProt Q03933 1-536)”, the binding entry in test [4] is listed as “binds”.

(Values after article doi:10.1101/481457.)
